We go through 5 molecules from PMC4359378.

Protein sequences, listed by entry. Tags and fused reporters are not part of them.
UniProt Q08775: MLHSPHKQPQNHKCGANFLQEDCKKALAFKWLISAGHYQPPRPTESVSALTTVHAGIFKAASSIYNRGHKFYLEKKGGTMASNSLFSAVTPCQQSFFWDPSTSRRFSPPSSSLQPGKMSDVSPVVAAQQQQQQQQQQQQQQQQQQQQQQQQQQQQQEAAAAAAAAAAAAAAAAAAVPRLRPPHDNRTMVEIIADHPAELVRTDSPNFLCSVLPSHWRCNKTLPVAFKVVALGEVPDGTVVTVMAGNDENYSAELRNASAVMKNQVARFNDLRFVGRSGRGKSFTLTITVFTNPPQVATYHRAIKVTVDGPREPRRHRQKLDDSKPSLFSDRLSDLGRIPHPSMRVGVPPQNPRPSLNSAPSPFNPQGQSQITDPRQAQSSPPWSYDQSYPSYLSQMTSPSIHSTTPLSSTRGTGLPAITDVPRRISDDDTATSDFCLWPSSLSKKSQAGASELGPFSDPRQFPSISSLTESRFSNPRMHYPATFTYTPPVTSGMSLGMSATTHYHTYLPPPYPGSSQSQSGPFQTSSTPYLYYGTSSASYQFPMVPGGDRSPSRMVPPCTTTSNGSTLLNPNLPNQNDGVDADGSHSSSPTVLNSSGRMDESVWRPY
UniProt P28033: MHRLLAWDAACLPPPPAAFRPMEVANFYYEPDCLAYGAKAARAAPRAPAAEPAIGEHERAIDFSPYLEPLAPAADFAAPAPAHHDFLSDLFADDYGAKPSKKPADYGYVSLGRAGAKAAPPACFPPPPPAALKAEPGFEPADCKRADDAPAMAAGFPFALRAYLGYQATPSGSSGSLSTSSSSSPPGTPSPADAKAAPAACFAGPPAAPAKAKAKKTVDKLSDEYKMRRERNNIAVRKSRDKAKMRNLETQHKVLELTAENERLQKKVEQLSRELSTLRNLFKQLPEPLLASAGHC
UniProt P56546: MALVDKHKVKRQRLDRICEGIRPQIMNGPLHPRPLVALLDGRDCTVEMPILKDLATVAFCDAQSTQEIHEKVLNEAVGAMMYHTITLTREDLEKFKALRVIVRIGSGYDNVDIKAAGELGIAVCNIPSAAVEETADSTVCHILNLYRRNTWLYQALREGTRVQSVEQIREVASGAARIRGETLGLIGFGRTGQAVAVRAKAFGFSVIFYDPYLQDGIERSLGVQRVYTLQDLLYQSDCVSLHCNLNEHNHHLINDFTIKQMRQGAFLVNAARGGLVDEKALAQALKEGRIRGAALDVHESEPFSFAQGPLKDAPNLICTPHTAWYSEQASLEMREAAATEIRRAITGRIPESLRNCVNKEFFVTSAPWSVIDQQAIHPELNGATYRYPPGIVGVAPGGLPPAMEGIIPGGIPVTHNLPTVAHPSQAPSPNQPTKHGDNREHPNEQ

No constants are given. Whether binding was seen depends on the method and setting. Binding seen in cells or lysates may run through a third protein. A yes stands for co-enrichment or nearness to the bait. Other partners may have been found. Where a sequence is shown, tags or fusion partners need not be part of it.

To fix the notation:
T1: ZEB1-HA (mouse) (UniProt Q64318)
T1 sequence: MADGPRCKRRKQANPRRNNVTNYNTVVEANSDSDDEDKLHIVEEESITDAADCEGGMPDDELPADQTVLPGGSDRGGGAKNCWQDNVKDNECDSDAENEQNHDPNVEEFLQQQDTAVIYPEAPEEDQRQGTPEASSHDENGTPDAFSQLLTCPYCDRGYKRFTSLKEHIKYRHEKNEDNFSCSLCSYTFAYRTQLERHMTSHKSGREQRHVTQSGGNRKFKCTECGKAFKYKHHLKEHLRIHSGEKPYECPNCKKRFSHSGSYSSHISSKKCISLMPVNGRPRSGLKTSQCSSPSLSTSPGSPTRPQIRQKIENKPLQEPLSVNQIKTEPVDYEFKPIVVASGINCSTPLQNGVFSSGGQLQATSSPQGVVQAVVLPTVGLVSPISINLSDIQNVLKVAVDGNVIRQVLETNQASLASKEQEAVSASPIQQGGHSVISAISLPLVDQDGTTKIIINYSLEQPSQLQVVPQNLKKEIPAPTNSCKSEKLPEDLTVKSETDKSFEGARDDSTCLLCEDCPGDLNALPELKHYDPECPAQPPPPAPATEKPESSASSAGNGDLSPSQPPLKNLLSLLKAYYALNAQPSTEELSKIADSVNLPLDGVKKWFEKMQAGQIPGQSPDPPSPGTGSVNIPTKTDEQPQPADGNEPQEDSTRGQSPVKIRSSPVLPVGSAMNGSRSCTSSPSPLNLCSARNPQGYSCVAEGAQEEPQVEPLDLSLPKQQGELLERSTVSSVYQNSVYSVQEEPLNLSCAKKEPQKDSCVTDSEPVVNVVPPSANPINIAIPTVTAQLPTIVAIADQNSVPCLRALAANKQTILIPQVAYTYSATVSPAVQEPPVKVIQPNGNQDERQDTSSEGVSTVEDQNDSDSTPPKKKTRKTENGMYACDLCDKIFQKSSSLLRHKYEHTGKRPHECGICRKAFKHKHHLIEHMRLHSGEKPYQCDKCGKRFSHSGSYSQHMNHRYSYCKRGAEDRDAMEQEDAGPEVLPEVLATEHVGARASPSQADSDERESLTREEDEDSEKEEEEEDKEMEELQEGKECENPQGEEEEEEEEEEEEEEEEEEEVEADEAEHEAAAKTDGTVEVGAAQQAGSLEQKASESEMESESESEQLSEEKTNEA

B1: ATF7 (protein, UniProt Q8R0S1 1-413)
chain: MGDDRPFVCSAPGCGQRFTNEDHLAVHKHKHEMTLKFGPARTDSVIIADQTPTPTRFLKNCEEVGLFNELASSFEHEFKKASDDDEKKGAAGPLDMSLPSTPDIKIKEEEPVEVDSSPPDSPASSPCSPPLKEKEVTTKPVVISTPTPTIVRPGSLPLHLGYDPLHPTLPSPTSVITQAPPSNRQIGSPTGSLPLVMHLANGQTMPMLPGPPVQMPSVISLARPVSMVPNIPGIPGPPVNNSGSISPSGHPMPSEAKMRLKATLTHQVSSINGGCGMVVGTASTMVTARPEQNQILIQHPDAPSPAQPQVSPAQPTPSTGGRRRRTVDEDPDERRQRFLERNRAAASRCRQKRKLWVSSLEKKAEELTSQNIQLSNEVTLLRNEVAQLKQLLLAHKDCPVTALQKKTQGYLGK
B2: ATF2 (protein, UniProt P16951 1-487)
chain: MSDDKPFLCTAPGCGQRFTNEDHLAVHKHKHEMTLKFGPARNDSVIVADQTPTPTRFLKNCEEVGLFNELASPFENEFKKASEDDIKKMPLDLSPLATPIIRSKIEEPSVVETTHQDSPLPHPESTTSDEKEVPLAQTAQPTSAIVRPASLQVPNVLLTSSDSSVIIQQAVPSPTSSTVITQAPSSNRPIVPVPGPFPLLLHLPNGQTMPVAIPASITSSNVHVPAAVPLVRPVTMVPSVPGIPGPSSPQPVQSEAKMRLKAALTQQHPPVTNGDTVKGHGSGLVRTQSEESRPQSLQQPATSTTETPASPAHTTPQTQNTSGRRRRAANEDPDEKRRKFLERNRAAASRCRQKRKVWVQSLEKKAEDLSSLNGQLQSEVTLLRNEVAQLKQLLLAHKDCPVTAMQKKSGYHTADKDDSSEDLSVPSSPHTEAIQHSSVSTSNGVSSTSKAEAVATSVLTQMADQSTEPALSQIVMAPPSQAQPSGS

For this assay, the target named is T1, ZEB1-HA (mouse). Description: affinity purification with mass spectrometry; anti-HA antibody on protein-A sepharose beads; lysate of 3T3-L1 cells stably overexpressing ZEB1 (doxycycline from day -2, harvested at day 0), control vector cells alongside; IP buffer 20 mM Tris-Cl pH 7.4, 150 mM NaCl, 10% glycerol, 1% Triton X-100, 1 mM EDTA, 1 mM DTT; 4 hr at 4°C, 5 washes; SDS-PAGE, in-gel trypsin digestion, LC-MS/MS; two replicate experiments.
Consider RUNX2 (from UniProt Q08775 1-607), for which the binding entry was “binds”.

As for “CCAAT/enhancer binding protein beta (C/EBPβ) (from UniProt P28033 1-296)”, the binding result was “binds”.

As to CtBP2 (from UniProt P56546 1-445), the binding result is on record as “binds”.

Consider B1, for which the binding entry was “binds”.

Consider B2, for which the binding result was “binds”.
